Results from one PubChem assay

From PubChem BioAssay record AID1224904 (Broad Institute, 2016).

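293T-iDUX4 cells carrying a ZSCAN4-driven Gaussia luciferase and a tet-on Italica luciferase control; the gap between the two luminescence signals is read after 24 h. The test concentration is not given here. Percent difference between the Gaussia and Italica channels; more negative values mean more selective suppression of the DUX4 reporter, and higher values mean less activity.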

Values are in %. How 0% and 100% were set is not given here. Common to all entries: measured here: selective DUX4 reporter inhibition. This is a side read-out of the assay, for part of the compounds, not drawn at random.

structure	Gaussia minus Italica difference (%)
C[C@H](CO)N1C[C@H](C)[C@@H](CN(C)S(C)(=O)=O)OCc2ccccc2-c2ccccc2C1=O	-16.98
CCC(=O)N(C)C[C@@H]1Oc2cc(C#Cc3ccncc3)ccc2S(=O)(=O)N([C@H](C)CO)C[C@H]1C	9.642
CCc1cnc(N2[C@H](CO)[C@H](c3ccccc3-c3ccccc3C)[C@@H]2C#N)s1	-8.178
N#Cc1cccc(-c2ccc3c(c2)[C@H]2[C@H](CCN2C(=O)C2CCCCC2)[C@H](CO)N3)c1	0.857
COc1cccc(CN(C)C[C@@H]2OCc3ccccc3-c3c(n(C)c4ccccc34)C(=O)N([C@H](C)CO)C[C@@H]2C)c1	-13.98
CC(C)NC(=O)N1[C@@H]2Cn3c(ccc(-c4cccc(C(=O)N(C)C)c4)c3=O)[C@H]1[C@@H](C(=O)O)[C@@H]2CO	-21.92
COc1ccc2c3c(n(C)c2c1)[C@@H](CO)N(Cc1ccccc1)CC31CN(S(=O)(=O)c2ccc(C)cc2)C1	-0.04498
CO[C@@H]1CN(C)C(=O)c2cc(NC(=O)Nc3ccc(Cl)cc3)ccc2OC[C@@H](C)N(C)C[C@@H]1C	-13.83
COc1ccc2c3c([nH]c2c1)[C@@H](CO)N(Cc1ccccc1F)CC31CCN(C)CC1	-17.15
O=C(C[C@H]1CC[C@H]2[C@@H](COC[C@@H](O)CN2Cc2ccc(Oc3ccccc3)cc2)O1)Nc1nccs1	-2.767
COc1ccc2c3c([nH]c2c1)[C@@H](CO)N(Cc1ccccc1OC)CC31CN(C(C)=O)C1	5.174
O=C(Nc1cc(F)ccc1F)N1CCCCN2[C@H](CO)[C@@H](c3ccc(-c4cccnc4)cc3)[C@@H]2C1	-4.526
CC(C)CC#Cc1ccc([C@@H]2[C@H]3CN(C(=O)NC4CCCC4)CCCCN3[C@H]2CO)cc1	-13.89
COc1ccc2c3c(n(C)c2c1)[C@@H](CO)N(Cc1ccccc1)CC31CCN(CC2CC2)CC1	-19.71
CO[C@H]1CN(C)C(=O)c2cc(NS(=O)(=O)c3ccc(Cl)cc3)ccc2OC[C@@H](C)N(C(=O)NC(C)C)C[C@H]1C	-3.565
N#C[C@@H]1[C@H](c2ccccc2-c2cccc(F)c2)[C@H](CO)N1C(=O)C1CCCCC1	-19.01
O=C(C[C@H]1CC[C@@H]2[C@H](COC[C@@H](O)CN2S(=O)(=O)c2ccc(Cl)cc2)O1)NCc1ccc(Cl)c(Cl)c1	-2.118
CCCC#Cc1ccc([C@@H]2[C@H](CO)N3C(=O)CN(C(=O)Nc4ccccc4F)C[C@@H]23)cc1	-19.08
C[C@H](CO)N1C[C@H](C)[C@H](CN(C)Cc2ccc(-c3ccccc3)cc2)OCc2cnnn2CCCC1=O	-8.154
Cc1ccc(-c2ccc([C@@H]3[C@H]4CN(C(=O)Nc5ccccc5)CCCCN4[C@H]3CO)cc2)cc1	-9.57
O=C(NC1CCCC1)[C@@H]1[C@@H](CO)[C@@H]2Cn3c(ccc(-c4ccncc4)c3=O)[C@@H]2N1CCc1ccccc1	-13.82
O=C(C1CCOCC1)N1CC(=O)N2[C@H](C1)[C@@H](c1ccc(/C=C/c3ccccc3)cc1)[C@@H]2CO	0.6043
CN1c2ccc(-c3ccc(F)cc3)cc2[C@@H]2[C@@H](CCN2C(=O)Nc2ccc(F)cc2)[C@@H]1CO	3.556
COc1cccc(-c2ccc(C3[C@H]4CNC[C@@H]3N4Cc3ccc4c(c3)OCO4)cc2)c1 (stereo partly shown)	19.17
COc1ccc2c3c(n(C)c2c1)[C@H](CO)N(CC1CC1)CC31CN(C(=O)c2ccc3c(c2)OCO3)C1	-10.2
O=C(C[C@@H]1CC[C@H]2[C@@H](COC[C@H](O)CN2C(=O)Nc2ccc(Cl)cc2)O1)NCC1CCCCC1	-5.687
O=C(C[C@H]1CC[C@H]2[C@@H](COC[C@@H](O)CN2S(=O)(=O)c2ccccc2Cl)O1)N1CCC(Cc2ccccc2)CC1	-17.25
C/C=C/c1ccc([C@@H]2[C@H](CO)N(CC3CCCC3)C23CN(C(=O)CC)C3)cc1	-7.294
CCCNC(=O)N1[C@@H](CO)[C@@H](c2ccccc2)C12CN(CCC(F)(F)F)C2	-2.665
COCC(=O)N1CCCCN2[C@H](CO)[C@H](c3ccc(-c4cccc(C)c4)cc3)[C@@H]2C1	-1.03
COc1ccc2c3c(n(C)c2c1)[C@@H](CO)N(Cc1ccccc1OC)CC31CCN(C(=O)C2CC2)CC1	1.567
O=C(CC1CC1)N1CC[C@@H]2[C@H](CO)Nc3ccc(-c4cccc(F)c4)cc3[C@@H]21	-1.998
C[C@@H](NC(=O)C[C@@H]1C[C@H]2c3cc(NC(=O)c4ccc5c(c4)OCO5)ccc3O[C@H]2[C@H](CO)O1)c1ccccc1	-18.6
N#C[C@@H]1[C@@H](c2ccccc2C2=CCCCC2)[C@H](CO)N1C(=O)Cc1ccncc1	-2.581
COc1ccccc1CN(C)C[C@@H]1OCc2ccccc2-c2c(n(C)c3ccccc23)C(=O)N([C@@H](C)CO)C[C@H]1C	-21.88
CCS(=O)(=O)N1CC2(CN(Cc3ccccc3)[C@@H](CO)c3c2c2ccc(OC)cc2n3C)C1	-11.21

3 of the entries, repeated:

{"structure": "COCC(=O)N1CCCCN2[C@H](CO)[C@H](c3ccc(-c4cccc(C)c4)cc3)[C@@H]2C1", "Gaussia minus Italica difference (%)": "-1.03"}
{"structure": "COc1cccc(CN(C)C[C@@H]2OCc3ccccc3-c3c(n(C)c4ccccc34)C(=O)N([C@H](C)CO)C[C@@H]2C)c1", "Gaussia minus Italica difference (%)": "-13.98"}
{"structure": "O=C(C[C@H]1CC[C@H]2[C@@H](COC[C@@H](O)CN2Cc2ccc(Oc3ccccc3)cc2)O1)Nc1nccs1", "Gaussia minus Italica difference (%)": "-2.767"}